Source: article PMC9927451
No constants are given. Whether binding was seen depends on the method and setting. In cells and extracts the contact can be indirect. These calls come from enrichment with a bait or labelling near it, and not all partners need be listed.

B1: PA4465, endogenous (protein, UniProt Q9HVV3 1-286)
chain: MRLIIVSGRSGSGKSTALNVLEDNGFYCIDNLPASLLPDLAQRALLHTELLQPQVAVSIDARNLPSQLQRFPELLQEVRDNHINCDVLYLDADDETLLKRFSETRRRHPLTTDTRSLAEAIGDESQLLGPIADLADLKLDTTSLNLYQLRDTIKLRLLNKPEPGTAFLVESFGFKRGMPVDADLVFDVRCLPNPYWKPELRDHSGLEPEVREYLAAQPDVEEMYQDIVGYLNKWLPRFAASNRSYVTVAIGCTGGHHRSVYLAERIGAALRDSLKNVQIRHRDLSS
B2: ParC (PA4964), endogenous (protein, UniProt Q9HUK1 1-754)
chain: MSESLDLSLEGVERRSLAEFTEQAYLNYSMYVIMDRALPHIGDGLKPVQRRIVYAMSELGLDADSKHKKSARTVGDVLGKFHPHGDSACYEAMVLMAQPFSYRYPLVDGQGNWGAPDDPKSFAAMRYTEARLSRYSEVLLSELGQGTVDWVPNFDGTLDEPAVLPARLPNLLLNGTTGIAVGMATDVPPHNLREVASACVRLLDQPGATVAELCEHVPGPDFPTEAEIITPRADLQKVYETGRGSVRMRAVYRVEDGDIVIHALPHQVSGSKVLEQIAGQMQAKKLPMVADLRDESDHENPTRIVIIPRSNRVDVEELMTHLFATTDLETSYRVNLNIIGLDGKPQVKDLRQLLSEWLQFRIGTVRRRLQFRLDKVERRLHLLDGLLIAFLNLDEVIHIIRTEDQPKAVLMERFELSEVQADYILDTRLRQLARLEEMKIRGEQEELLKEQKRLQTLLGSEAKLKKLVREELIKDAETYGDDRRSPIVARAEARALSETELMPTEPVTVVLSEKGWVRCAKGHDIDAAGLSYKAGDGFKAAAPGRSNQYAVFIDSTGRSYSLPAHSLPSARGQGEPLSGRLTPPPGASFECVLLPDDDALFVIASDAGYGFVVKGEDLQAKNKAGKALLSLPNGSAVVAPRPVRDVEQDWLAAVTTEGRLLLFKVSDLPQLGKGKGNKIIGIPGERVASREEYLTDLAVLPAGATLVLQAGKRTLSLKGDDLEHYKGERGRRGNKLPRGFQRVDSLLVDIPPQD
B3: HupB, endogenous (protein, UniProt P05384 1-90)
chain: MNKSELIDAIAASADIPKAVAGRALDAVIESVTGALKAGDSVVLVGFGTFAVKERAARTGRNPQTGKPIKIAAAKIPGFKAGKALKDAVN
B4: ClpP2, endogenous (enzyme, UniProt Q9HYR9 1-201)
chain: MKTDDKDREGGDSHGAIGAKLMEYALKVRKVFVTGGVDEKMAKDVVQQLHILASISDDPIYMFVNSPGGHVESGDMIFDAIRFITPKVIMIGSGSVASAGALIYAAADKENRYSLPNTRFLLHQPSGGIQGPASNIEIYRREIVRMKERLDRIFAEATGQTPEKISADTERDFWLNAEEAVQYGLVNKIIVSEREITLPGQ
B5: ArcB (PA5172), endogenous (enzyme, UniProt P08308 1-336)
chain: MAFNMHNRNLLSLMHHSTRELRYLLDLSRDLKRAKYTGTEQQHLKRKNIALIFEKTSTRTRCAFEVAAYDQGANVTYIDPNSSQIGHKESMKDTARVLGRMYDAIEYRGFKQEIVEELAKFAGVPVFNGLTDEYHPTQMLADVLTMREHSDKPLHDISYAYLGDARNNMGNSLLLIGAKLGMDVRIAAPKALWPHDEFVAQCKKFAEESGAKLTLTEDPKEAVKGVDFVHTDVWVSMGEPVEAWGERIKELLPYQVNMEIMKATGNPRAKFMHCLPAFHNSETKVGKQIAEQYPNLANGIEVTEDVFESPYNIAFEQAENRMHTIKAILVSTLADI
B6: GlyA3 (PA4602), endogenous (enzyme, UniProt Q9HVI7 1-417)
chain: MFSRDLTLARYDAELFAAMEQEAQRQEEHIELIASENYTSPAVMEAQGSVLTNKYAEGYPHKRYYGGCEYVDIVEQLAIDRAKQLFGADYANVQPHAGSQANAAVYLALLSAGDTILGMSLAHGGHLTHGASVSSSGKLYNAVQYGIDANGLIDYDEVERLAVEHKPKMIVAGFSAYSQVLDFARFRAIADKVGAYLFVDMAHVAGLVAAGVYPNPVPFADVVTTTTHKTLRGPRGGLILARANEEIEKKLNSAVFPSAQGGPLEHVIAAKAVCFKEALQPEFKTYQQQVLKNAQSMAQVFLDRGFDVVSGGTQNHLFLLSLIKQDITGKDADAALGRAFITVNKNSVPNDPRSPFVTSGLRIGTPAVTTRGFKEAECRELAGWICDILENMGDESVVDGVREKVKAICAKFPVYGN
B7: PyrG (PA3637), endogenous (enzyme, UniProt Q9HXZ4 1-542)
chain: MTRYIFVTGGVVSSLGKGIASASLAAILEARGLKITMLKLDPYINVDPGTMSPFQHGEVFVTQDGAETDLDLGHYERFVRTTMTQNNNFTTGRVYMDVLRKERRGDYLGATVQVIPHITDEIKRRIIKGAGDADVALVEIGGTVGDIESQPFLEAIRQLRVEIGAKRAMLMHLTLVPYIATAGETKTKPTQHSVKELRSIGLQPDVLVCRSDHPIDVSSRRKIALFTNVEERAVIALEDVDTIYRIPSVLHAQGLDDIVVERFGLECGQADLSEWDRVVDAKLNPEREVTIAMVGKYMELLDAYKSLIEAMTHAGIQSRTKVNLRYIDSEDIEQQGTSLLEGVDAILVPGGFGLRGVEGKISTVQYARENKIPYLGICLGMQVAVIEYARNVLGWSDANSTEFDKSSGHPVVGLITEWQDATGATEIRTEASDLGGTMRLGAQECQLQTGTLVHDCYAKDVIVERHRHRYEVNNNLLPQLEQAGLKISGRSGDGALVEVVEAPEHPWFVACQFHPEFTSTPRDGHPLFSGFVNAALKYSGKA
B8: NdpA (PA3849), endogenous (protein, UniProt Q9HXF7 1-334)
chain: MPIHHAIVHLIEKKPDGTPAVLHARDAELGDSQAIENLLADLNESYNAKNKAWGFFQGESGAYPFSGWLGEYLEGDRDFVGFSREAVEHLQKLMEESNLSTGGHILFAHYQQGMTDYLAIALLHHSEGVAVNESLEVTPSRHLDLGQLHLAARINISEWRNNKQSKQYISFIKGKGGKKVSDYFRDFIGCQEGVDSPSETRTLLKAFSDFVESEDMAEEQAREKTETLVDYATSQARIGEPMTLDALSELMDDQQPRAFYDYIRNKDYGLSPEIPADKRTLNQFRRFTGRAEGLSISFEAHLLGSKVEYDEERDMLIIRQLPTQLKDQLKRRKD
B9: PmpR (PA0964), endogenous (protein, UniProt Q51423 1-248)
chain: MAGHSKWANIKHRKERQDAKKGKIFTKLIRELTVAARQGGGVPADNPRLRLAVDKALTANMTRDTIDRAIARGVGSNDADNMVELSYEGYAPSGVAIIVEAMTDNRNRTAAEVRHAFSKCGGNLGTDGSVAYMFERKGQISFAPGVDEEALMDAALEAGADDVVVNDDGSIDVFTTFADFISVNEALAAAGFKGDEAEVTMIPSTTATLDLETAQKVLKLIDMLEDLDDVQNVYSNADIPDDVMAQLG
B10: PA1533, endogenous (protein, UniProt Q9I3I0 1-108)
chain: MMKGGMAGLMKQAQQMQEKMQKMQEELANAEVTGQSGAGLVSVVMTGRHDVKRVSLDDSLMQEDKEILEDLIAAAVNDAVRKIEQNNQEKMSGFTSGMQLPPGFKMPF
B11: NadE (PA4920), endogenous (enzyme, UniProt Q9HUP3 1-275)
chain: MQQIQRDIAQALQVQPPFQSEADVQAQIARRIAFIQQCLKDSGLKTLVLGISGGVDSLTAGLLAQRAVEQLREQTGDQAYRFIAVRLPYQVQQDEADAQASLATIRADEEQTVNIGPSVKALAEQLEALEGLEPAKSDFVIGNIKARIRMVAQYAIAGARGGLVIGTDHAAEAVMGFFTKFGDGACDLAPLSGLAKHQVRALARALGAPENLVEKIPTADLEDLRPGHPDEASHGVTYAEIDAFLHGQPLREEAARVIVDTYHKTQHKRELPKAP

The binders below were run against FLAG-ParB (P. aeruginosa) (assay: affinity purification with mass spectrometry; clarified lysates of P. aeruginosa with flag-parB (WT strain as control) on Dynabeads coupled with anti-FLAG antibodies; washed with 1x IP buffer; eluted with 0.1 M glycine pH 3.5; mass spectrometry).

Row | Binder | binding
1 | B1 | binds
2 | B2 | binds
3 | B3 | binds
4 | B4 | binds
5 | B5 | binds
6 | B6 | binds
7 | B7 | binds
8 | B8 | binds
9 | B9 | binds
10 | B10 | binds
11 | B11 | binds
